These are yes or no findings as the source states them, for the method shown. Some entries that bind do so weakly or less than the wild type.
T1: wild type hemolytic pneumolysin (Ply-H) (Streptococcus pneumoniae TIGR4 (serotype 4)), P0C2J9
T1 chain: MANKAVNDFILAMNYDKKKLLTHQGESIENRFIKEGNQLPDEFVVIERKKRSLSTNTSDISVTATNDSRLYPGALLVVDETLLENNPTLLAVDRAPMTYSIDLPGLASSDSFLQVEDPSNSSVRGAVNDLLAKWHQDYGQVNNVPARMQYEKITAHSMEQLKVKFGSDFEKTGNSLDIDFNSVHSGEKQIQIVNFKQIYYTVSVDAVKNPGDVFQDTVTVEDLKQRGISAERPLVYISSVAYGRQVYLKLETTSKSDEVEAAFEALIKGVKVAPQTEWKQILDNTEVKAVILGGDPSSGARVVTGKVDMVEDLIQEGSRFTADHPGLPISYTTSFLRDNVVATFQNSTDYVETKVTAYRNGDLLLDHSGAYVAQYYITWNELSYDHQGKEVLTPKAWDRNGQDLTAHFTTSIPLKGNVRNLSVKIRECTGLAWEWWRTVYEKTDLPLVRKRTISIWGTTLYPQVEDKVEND

B1: wild type hemolytic pneumolysin (Ply-H), P0C2J9 1-471 (protein)
chain: T1 chain

Legend:
[1] = molecular target: wild type hemolytic pneumolysin (Ply-H) (Streptococcus pneumoniae TIGR4 (serotype 4)) (UniProt P0C2J9); assay: SDS-PAGE of unboiled samples with immunoblot (SDS-resistant oligomers); purified Ply variant without cells, 5% SDS-PAGE, anti-Ply blot; both purified
[2] = molecular target: T1, wild type hemolytic pneumolysin (Ply-H) …; assay: SDS-PAGE of unboiled samples with immunoblot (SDS-resistant oligomers); 10^6 A549 cells incubated with 0.5 ug Ply variant in PBS for 30 min at 37°C, 5% SDS-PAGE without boiling, anti-Ply blot; oligomers on cell membranes; both purified; details: remark: other sources report otherwise
[3] = molecular target: T1, wild type hemolytic pneumolysin (Ply-H) …; assay: negative-stain transmission electron microscopy; purified Ply (0.5 uM) incubated with cholesterol:POPC (50 mol% each) liposomes (2 mg/ml) at 37°C for 30 min, stained with 2% phosphotungstic acid; oligomeric rings on membranes; both purified; details: remark: other sources report otherwise

Row | Molecule | binding [1] | binding [2] | binding [3]
1 | wild type hemolytic pneumolysin (Ply-H) (from UniProt P0C2J9 1-471) | no binding (condition: without cells) | – | –
2 | B1 | – | binds | binds
